The other results are listed elsewhere or left out.
Experiments:
Assay in all cases: log2 fold change, soluble protein after heating vs DMSO (PISA); higher = thermal stabilisation; K562 cells, 10 uM, 30 min; active = over 0.2 and 3.5 SD of the protein, either way, in both replicates (recomputed)
[1] = compound: COC1=CC=C(C=C1)CN2C=CC3=C2C=C(C=C3)C(=O)NO
Procedure, shortened: (§1)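 K562 cells at 2×10^6 cells/mL were given 10 μM compound for 30 min. Aliquots then went through 3 min of heating across 48°C-58°C, were pooled, and were extracted in PBS with 0.5% NP-40 at 4°C, and the supernatant after 21,000xg for 90 min was quantified by TMTpro 16plex LC-MS/MS with channel sums equalised. Thermal stability relative to control samples, from duplicates, is given as log2 fold change.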

The chains behind the UniProt entries cited, without tags or fusion partners. Where a name states a change or a piece, a line headed by the entry shows the natural chain unless it says otherwise.
UniProt Q96JB5: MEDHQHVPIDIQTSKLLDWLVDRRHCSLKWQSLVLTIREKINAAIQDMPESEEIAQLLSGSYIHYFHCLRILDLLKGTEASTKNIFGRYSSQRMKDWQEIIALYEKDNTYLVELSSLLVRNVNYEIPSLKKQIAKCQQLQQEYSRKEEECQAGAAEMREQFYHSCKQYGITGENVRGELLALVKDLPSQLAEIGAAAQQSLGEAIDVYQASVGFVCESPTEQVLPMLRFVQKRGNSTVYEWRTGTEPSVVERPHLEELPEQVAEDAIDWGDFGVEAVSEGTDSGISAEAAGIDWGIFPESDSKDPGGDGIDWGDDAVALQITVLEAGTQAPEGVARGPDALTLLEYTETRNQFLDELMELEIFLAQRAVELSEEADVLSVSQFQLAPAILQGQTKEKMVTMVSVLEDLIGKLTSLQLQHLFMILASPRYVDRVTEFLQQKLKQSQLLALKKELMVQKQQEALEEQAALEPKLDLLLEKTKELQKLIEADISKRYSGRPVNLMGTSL
UniProt Q9Y6H1: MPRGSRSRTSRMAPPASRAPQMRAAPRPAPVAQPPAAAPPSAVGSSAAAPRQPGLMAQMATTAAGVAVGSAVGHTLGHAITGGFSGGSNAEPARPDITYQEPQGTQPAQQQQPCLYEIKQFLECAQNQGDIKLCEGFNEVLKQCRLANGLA
UniProt Q5VT25: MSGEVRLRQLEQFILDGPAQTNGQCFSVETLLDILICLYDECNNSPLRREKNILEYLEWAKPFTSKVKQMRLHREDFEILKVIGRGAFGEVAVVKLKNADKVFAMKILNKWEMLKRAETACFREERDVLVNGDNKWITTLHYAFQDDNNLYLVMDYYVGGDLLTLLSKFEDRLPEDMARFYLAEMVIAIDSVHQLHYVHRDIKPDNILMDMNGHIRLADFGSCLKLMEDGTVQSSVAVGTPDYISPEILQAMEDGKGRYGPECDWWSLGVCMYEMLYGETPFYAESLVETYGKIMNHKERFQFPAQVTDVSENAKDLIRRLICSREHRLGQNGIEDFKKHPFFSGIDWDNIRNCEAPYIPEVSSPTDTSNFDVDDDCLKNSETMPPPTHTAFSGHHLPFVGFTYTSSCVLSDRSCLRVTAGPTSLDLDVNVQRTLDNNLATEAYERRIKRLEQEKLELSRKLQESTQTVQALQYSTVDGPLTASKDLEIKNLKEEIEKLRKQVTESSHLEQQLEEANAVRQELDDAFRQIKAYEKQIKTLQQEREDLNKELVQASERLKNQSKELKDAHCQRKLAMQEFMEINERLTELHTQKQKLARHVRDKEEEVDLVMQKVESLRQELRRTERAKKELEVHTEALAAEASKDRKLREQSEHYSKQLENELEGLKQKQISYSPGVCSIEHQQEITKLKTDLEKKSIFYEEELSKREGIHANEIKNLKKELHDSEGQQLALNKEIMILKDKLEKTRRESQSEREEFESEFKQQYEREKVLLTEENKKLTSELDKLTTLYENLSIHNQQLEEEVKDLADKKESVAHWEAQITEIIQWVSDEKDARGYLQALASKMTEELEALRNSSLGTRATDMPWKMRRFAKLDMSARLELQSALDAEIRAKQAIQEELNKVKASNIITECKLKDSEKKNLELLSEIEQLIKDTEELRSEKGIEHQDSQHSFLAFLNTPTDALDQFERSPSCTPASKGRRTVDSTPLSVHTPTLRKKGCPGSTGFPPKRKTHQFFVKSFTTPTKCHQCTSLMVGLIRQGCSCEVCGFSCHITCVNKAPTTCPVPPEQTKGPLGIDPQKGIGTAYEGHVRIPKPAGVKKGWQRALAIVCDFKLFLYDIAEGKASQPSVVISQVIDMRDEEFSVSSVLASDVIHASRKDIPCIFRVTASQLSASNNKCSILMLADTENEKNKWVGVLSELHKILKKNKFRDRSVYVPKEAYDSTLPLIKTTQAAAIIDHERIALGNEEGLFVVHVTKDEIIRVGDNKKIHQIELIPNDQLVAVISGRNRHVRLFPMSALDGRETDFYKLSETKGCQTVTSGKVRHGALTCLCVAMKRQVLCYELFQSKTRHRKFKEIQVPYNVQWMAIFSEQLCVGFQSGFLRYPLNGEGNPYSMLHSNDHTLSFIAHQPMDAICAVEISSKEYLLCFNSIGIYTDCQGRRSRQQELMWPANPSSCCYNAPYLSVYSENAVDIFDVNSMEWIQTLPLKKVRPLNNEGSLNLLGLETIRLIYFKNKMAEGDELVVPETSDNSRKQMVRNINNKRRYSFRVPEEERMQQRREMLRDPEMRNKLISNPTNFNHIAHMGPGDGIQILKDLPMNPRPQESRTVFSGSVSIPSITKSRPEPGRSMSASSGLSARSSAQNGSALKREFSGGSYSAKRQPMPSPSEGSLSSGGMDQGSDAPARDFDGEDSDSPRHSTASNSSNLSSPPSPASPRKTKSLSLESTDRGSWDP
UniProt Q96G23: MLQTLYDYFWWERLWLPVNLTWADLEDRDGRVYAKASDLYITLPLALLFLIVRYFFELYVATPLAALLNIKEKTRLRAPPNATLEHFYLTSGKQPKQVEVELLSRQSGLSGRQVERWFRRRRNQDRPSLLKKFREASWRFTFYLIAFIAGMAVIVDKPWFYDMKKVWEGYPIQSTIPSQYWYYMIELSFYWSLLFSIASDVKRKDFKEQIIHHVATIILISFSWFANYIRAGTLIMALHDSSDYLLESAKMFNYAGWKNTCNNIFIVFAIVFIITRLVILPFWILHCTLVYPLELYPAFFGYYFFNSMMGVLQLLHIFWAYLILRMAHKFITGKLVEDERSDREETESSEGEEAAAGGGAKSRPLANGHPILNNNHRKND
UniProt Q69YH5: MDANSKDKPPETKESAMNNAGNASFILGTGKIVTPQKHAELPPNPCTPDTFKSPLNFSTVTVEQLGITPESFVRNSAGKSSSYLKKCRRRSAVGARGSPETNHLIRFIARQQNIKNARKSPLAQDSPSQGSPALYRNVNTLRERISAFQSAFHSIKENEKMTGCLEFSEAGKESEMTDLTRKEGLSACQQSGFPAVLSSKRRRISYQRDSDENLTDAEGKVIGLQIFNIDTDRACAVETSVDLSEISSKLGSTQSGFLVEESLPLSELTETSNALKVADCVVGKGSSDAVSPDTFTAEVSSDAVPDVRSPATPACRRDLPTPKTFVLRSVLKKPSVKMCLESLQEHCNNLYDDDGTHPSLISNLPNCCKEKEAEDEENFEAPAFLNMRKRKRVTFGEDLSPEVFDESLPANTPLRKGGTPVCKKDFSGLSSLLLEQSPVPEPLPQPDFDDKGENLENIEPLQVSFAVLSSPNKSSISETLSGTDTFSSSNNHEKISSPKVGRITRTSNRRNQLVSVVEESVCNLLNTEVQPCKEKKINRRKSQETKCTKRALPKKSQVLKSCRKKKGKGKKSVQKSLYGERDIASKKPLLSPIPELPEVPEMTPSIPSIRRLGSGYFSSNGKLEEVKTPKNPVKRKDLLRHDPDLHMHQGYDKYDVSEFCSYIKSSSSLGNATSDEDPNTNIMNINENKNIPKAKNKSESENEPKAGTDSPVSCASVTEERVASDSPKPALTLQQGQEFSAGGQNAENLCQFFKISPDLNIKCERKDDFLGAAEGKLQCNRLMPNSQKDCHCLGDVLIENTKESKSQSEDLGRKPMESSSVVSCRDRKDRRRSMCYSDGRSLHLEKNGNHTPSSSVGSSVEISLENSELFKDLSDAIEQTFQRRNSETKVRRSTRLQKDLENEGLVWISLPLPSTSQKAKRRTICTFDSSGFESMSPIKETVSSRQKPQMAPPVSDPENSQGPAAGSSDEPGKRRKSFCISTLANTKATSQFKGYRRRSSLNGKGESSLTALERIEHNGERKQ
UniProt P46527, whole entry, looked up: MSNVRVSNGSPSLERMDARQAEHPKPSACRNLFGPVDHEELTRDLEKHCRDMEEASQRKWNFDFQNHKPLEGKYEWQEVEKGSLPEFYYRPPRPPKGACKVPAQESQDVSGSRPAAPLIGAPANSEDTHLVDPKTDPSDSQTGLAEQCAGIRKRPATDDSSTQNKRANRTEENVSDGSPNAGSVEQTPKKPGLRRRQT
UniProt Q96FF9: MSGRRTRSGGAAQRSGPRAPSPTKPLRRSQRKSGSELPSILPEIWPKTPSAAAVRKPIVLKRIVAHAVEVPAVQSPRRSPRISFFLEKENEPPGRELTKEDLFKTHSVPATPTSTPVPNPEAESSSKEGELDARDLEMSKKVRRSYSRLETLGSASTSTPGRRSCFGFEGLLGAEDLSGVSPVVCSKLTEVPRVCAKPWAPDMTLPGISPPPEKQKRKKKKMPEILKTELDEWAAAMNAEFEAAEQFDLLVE
UniProt Q96SN8: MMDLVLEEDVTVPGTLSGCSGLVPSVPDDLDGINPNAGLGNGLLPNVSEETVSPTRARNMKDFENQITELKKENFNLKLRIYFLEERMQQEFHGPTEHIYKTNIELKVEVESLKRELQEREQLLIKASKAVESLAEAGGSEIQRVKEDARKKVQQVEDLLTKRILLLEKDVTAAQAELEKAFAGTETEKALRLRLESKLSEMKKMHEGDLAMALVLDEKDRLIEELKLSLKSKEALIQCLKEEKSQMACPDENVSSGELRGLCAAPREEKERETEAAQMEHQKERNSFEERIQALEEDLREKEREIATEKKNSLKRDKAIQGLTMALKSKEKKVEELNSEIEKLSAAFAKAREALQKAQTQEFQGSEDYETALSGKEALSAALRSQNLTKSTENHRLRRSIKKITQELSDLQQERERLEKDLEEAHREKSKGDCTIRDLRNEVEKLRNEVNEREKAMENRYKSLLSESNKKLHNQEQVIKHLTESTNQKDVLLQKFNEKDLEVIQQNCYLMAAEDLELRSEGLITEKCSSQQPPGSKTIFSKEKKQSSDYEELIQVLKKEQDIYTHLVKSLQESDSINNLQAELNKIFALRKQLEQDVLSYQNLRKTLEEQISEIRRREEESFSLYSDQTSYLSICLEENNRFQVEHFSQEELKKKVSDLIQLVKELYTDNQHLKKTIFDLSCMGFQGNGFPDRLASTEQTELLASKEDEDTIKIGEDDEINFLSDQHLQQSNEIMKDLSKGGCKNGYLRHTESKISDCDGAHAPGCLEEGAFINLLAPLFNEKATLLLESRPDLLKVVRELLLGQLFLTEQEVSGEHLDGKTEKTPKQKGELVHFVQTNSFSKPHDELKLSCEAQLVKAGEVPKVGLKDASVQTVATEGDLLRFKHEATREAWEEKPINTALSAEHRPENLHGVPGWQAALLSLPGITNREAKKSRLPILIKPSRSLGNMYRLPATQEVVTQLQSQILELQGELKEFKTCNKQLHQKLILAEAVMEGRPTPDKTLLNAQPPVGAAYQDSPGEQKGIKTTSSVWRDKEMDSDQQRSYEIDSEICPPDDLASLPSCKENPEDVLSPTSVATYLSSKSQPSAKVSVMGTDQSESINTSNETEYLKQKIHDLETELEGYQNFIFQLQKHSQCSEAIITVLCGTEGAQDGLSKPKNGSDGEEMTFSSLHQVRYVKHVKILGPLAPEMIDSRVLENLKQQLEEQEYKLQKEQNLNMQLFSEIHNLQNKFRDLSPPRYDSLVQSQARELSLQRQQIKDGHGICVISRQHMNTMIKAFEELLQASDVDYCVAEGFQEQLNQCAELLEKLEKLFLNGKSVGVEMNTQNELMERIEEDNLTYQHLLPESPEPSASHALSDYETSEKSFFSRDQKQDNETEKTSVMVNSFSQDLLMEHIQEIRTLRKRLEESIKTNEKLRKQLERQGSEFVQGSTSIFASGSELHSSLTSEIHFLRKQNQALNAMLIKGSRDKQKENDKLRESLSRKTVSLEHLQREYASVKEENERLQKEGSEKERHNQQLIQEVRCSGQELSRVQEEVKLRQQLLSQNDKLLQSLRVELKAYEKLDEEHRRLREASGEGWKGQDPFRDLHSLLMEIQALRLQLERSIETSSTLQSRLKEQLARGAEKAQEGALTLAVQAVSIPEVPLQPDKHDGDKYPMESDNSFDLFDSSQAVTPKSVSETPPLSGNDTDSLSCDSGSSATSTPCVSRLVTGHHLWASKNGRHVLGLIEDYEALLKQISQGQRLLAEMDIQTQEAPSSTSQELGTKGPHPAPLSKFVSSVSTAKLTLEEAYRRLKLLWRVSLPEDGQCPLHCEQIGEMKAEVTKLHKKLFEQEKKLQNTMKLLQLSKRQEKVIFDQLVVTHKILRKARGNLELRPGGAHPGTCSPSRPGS
UniProt Q9BYV8: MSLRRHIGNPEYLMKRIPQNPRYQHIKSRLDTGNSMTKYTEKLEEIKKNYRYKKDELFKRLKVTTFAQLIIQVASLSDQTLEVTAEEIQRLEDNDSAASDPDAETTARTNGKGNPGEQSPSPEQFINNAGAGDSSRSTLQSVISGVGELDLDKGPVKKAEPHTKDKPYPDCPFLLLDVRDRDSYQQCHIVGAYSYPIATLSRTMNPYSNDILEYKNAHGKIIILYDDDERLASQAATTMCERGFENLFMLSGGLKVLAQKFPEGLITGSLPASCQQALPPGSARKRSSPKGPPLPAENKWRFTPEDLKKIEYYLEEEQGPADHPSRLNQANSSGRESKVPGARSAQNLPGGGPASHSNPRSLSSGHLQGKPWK

filanesib = compound: CON(C)C(=O)N1N=C(c2cc(F)ccc2F)S[C@@]1(CCCN)c1ccccc1 [filanesib]
Procedure, shortened: as §1

zotarolimus = compound: CO[C@H]1C[C@@H]2CC[C@@H](C)[C@@](O)(O2)C(=O)C(=O)N2CCCC[C@H]2C(=O)O[C@H]([C@H](C)C[C@@H]2CC[C@H](n3cnnn3)[C@H](OC)C2)CC(=O)[C@H](C)/C=C(\C)[C@@H](O)[C@@H](OC)C(=O)[C@H](C)C[C@H](C)/C=C/C=C/C=C/1C [zotarolimus]
Procedure, shortened: as §1

idasanutlin = compound: COc1cc(C(=O)O)ccc1NC(=O)[C@@H]1N[C@@H](CC(C)(C)C)[C@](C#N)(c2ccc(Cl)cc2F)[C@H]1c1cccc(Cl)c1F [idasanutlin]
Procedure, shortened: as §1

alisertib = compound: COc1cc(Nc2ncc3c(n2)-c2ccc(Cl)cc2C(c2c(F)cccc2OC)=NC3)ccc1C(=O)O [alisertib]
Procedure, shortened: as §1

[2] = compound: COc1cc2nc(-c3cc(F)ccc3O)nc(N[C@@H]3CNC[C@H]3C(C)(C)O)c2cc1OC
Procedure, shortened: as §1

gefitinib = compound: COc1cc2ncnc(Nc3ccc(F)c(Cl)c3)c2cc1OCCCN1CCOCC1 [gefitinib]
Procedure, shortened: as §1

[3] = compound: COc1cccc2cc(-c3nc([C@H]4CC[C@H](C(=O)O)CC4)n4ncnc(N)c34)[nH]c12
Procedure, shortened: as §1

lapatinib = compound: CS(=O)(=O)CCNCc1ccc(-c2ccc3ncnc(Nc4ccc(OCc5cccc(F)c5)c(Cl)c4)c3c2)o1 [lapatinib]
Procedure, shortened: as §1

pictilisib = compound: CS(=O)(=O)N1CCN(Cc2cc3nc(-c4cccc5[nH]ncc45)nc(N4CCOCC4)c3s2)CC1 [pictilisib]
Procedure, shortened: as §1

[4] = compound: CS(=O)(=O)c1ccc(-c2cnc(N)c(C(=O)Nc3ccccc3)n2)cc1
Procedure, shortened: as §1

crizotinib = compound: C[C@@H](Oc1cc(-c2cnn(C3CCNCC3)c2)cnc1N)c1c(Cl)ccc(F)c1Cl [crizotinib]
Procedure, shortened: as §1

[5] = compound: C[C@@H]1COCCN1C2=NC(=NC(=C2)C3(CC3)S(=O)(=O)C)C4=C5C=CNC5=CC=C4
Procedure, shortened: as §1

[6] = compound: C[C@H](C1=CC=C(C=C1)C(=O)NC2=C3C=CNC3=NC=C2)N
Procedure, shortened: as §1

gandotinib = compound: Cc1cc(Nc2cc(CN3CCOCC3)c3nc(C)c(Cc4ccc(Cl)cc4F)n3n2)n[nH]1 [gandotinib]
Procedure, shortened: as §1

[7] = compound: Cc1cc(SCc2sc(-c3ccc(C(F)(F)F)cc3)nc2C)ccc1OCC(=O)O
Procedure, shortened: as §1

doramapimod = compound: Cc1ccc(-n2nc(C(C)(C)C)cc2NC(=O)Nc2ccc(OCCN3CCOCC3)c3ccccc23)cc1 [doramapimod]
Procedure, shortened: as §1

ispinesib = compound: Cc1ccc(C(=O)N(CCCN)[C@@H](c2nc3cc(Cl)ccc3c(=O)n2Cc2ccccc2)C(C)C)cc1 [ispinesib]
Procedure, shortened: as §1

duvelisib = compound: C[C@H](Nc1ncnc2nc[nH]c12)c1cc2cccc(Cl)c2c(=O)n1-c1ccccc1 [duvelisib]
Procedure, shortened: as §1

tozasertib = compound: Cc1cc(Nc2cc(N3CCN(C)CC3)nc(Sc3ccc(NC(=O)C4CC4)cc3)n2)n[nH]1 [tozasertib]
Procedure, shortened: as §1

Measured: log2 fold change

CDK5RAP3 isoform 4 (UniProt Q96JB5)
inactive: [1] -0.008 | filanesib -0.085 | zotarolimus 0.026 | idasanutlin -0.091 | alisertib -0.001 | [2] 0.075 | gefitinib 0.024 | [3] 0.004 | lapatinib -0.034 | pictilisib -0.015 | [4] -0.017 | crizotinib -0.054 | [5] 0.044 | [6] -0.038 | gandotinib -0.051 | [7] 0.016 | doramapimod -0.033 | ispinesib -0.036

CHCHD2 (UniProt Q9Y6H1)
inactive: [1] 0.101 | filanesib 0.026 | zotarolimus -0.024 | alisertib 0.053 | [2] -0.002 | gefitinib -0.028 | [3] -0.155 | lapatinib -0.024 | pictilisib 0.031 | [4] 0 | crizotinib 0.161 | [5] -0.017 | [6] -0.075 | gandotinib -0.107 | [7] -0.016 | doramapimod -0.037 | ispinesib 0.066
active: idasanutlin -0.457

CDC42BPA isoform 6 (UniProt Q5VT25)
active: [2] -1.1 | crizotinib -0.477 | [6] -0.596
inactive: [1] -0.005 | filanesib 0.009 | zotarolimus 0.081 | idasanutlin 0.004 | alisertib -0.04 | gefitinib -0.096 | [3] -0.027 | lapatinib 0.106 | pictilisib 0.118 | [4] 0.03 | [5] -0.016 | gandotinib -0.148 | [7] 0.002 | doramapimod 0.071 | ispinesib -0.049

CHCHD3 (UniProt Q9NX63)
inactive: [1] 0.021 | filanesib -0.095 | zotarolimus -0.019 | idasanutlin -0.046 | alisertib -0.051 | [2] -0.047 | gefitinib 0.009 | [3] 0.01 | lapatinib -0.084 | pictilisib 0.02 | [4] 0.009 | crizotinib -0.01 | [5] -0.011 | [6] -0.047 | duvelisib 0.058 | gandotinib -0.019 | tozasertib 0.034 | [7] 0.016 | doramapimod 0.006 | ispinesib -0.041

CERS2 (UniProt Q96G23)
active: pictilisib -0.262 | crizotinib -0.294 | ispinesib -0.466
inactive: [1] -0.045 | filanesib -0.117 | zotarolimus -0.062 | idasanutlin -0.047 | alisertib -0.129 | [2] -0.107 | gefitinib -0.095 | [3] -0.005 | lapatinib -0.03 | [4] -0.027 | [5] -0.054 | [6] -0.034 | gandotinib -0.203 | [7] -0.032 | doramapimod -0.04

CDCA2 (UniProt Q69YH5)
inactive: [1] 0.278 | filanesib -0.036 | zotarolimus -0.04 | idasanutlin 0.018 | alisertib 0.585 | [2] -0.079 | gefitinib 0.109 | [3] -0.011 | lapatinib 0.204 | pictilisib -0.127 | [4] 0.161 | crizotinib 0.025 | [5] 0.041 | [6] -0.021 | gandotinib 0.098 | doramapimod 0.088 | ispinesib -0.04

CDKN1B (UniProt P46527)
inactive: [1] 0.085 | filanesib -0.02 | zotarolimus -0.007 | idasanutlin -0.033 | alisertib 0.068 | [2] 0.104 | gefitinib 0.124 | [3] -0.076 | lapatinib -0.03 | pictilisib -0.02 | [4] -0.017 | crizotinib -0.018 | [5] -0.295 | [6] -0.065 | gandotinib 0.077 | [7] -0.06 | doramapimod -0.071 | ispinesib -0.01

CERT isoform 3 (UniProt Q9Y5P4)
inactive: [1] -0.025 | filanesib 0.001 | zotarolimus 0.2 | idasanutlin -0.145 | alisertib -0.064 | [2] -0.201 | gefitinib 0.157 | [3] -0.004 | lapatinib 0.247 | pictilisib 0.186 | [4] 0.015 | crizotinib 0.102 | [5] 0.079 | gandotinib 0.209 | [7] -0.047 | doramapimod 0.192 | ispinesib 0.109
active: [6] -0.327

Random excerpt: two entries already listed
CERS2 (UniProt Q96G23)
active: pictilisib -0.262 | crizotinib -0.294 | ispinesib -0.466
inactive: [1] -0.045 | filanesib -0.117 | zotarolimus -0.062 | idasanutlin -0.047 | alisertib -0.129 | [2] -0.107 | gefitinib -0.095 | [3] -0.005 | lapatinib -0.03 | [4] -0.027 | [5] -0.054 | [6] -0.034 | gandotinib -0.203 | [7] -0.032 | doramapimod -0.04

CDCA2 (UniProt Q69YH5)
inactive: [1] 0.278 | filanesib -0.036 | zotarolimus -0.04 | idasanutlin 0.018 | alisertib 0.585 | [2] -0.079 | gefitinib 0.109 | [3] -0.011 | lapatinib 0.204 | pictilisib -0.127 | [4] 0.161 | crizotinib 0.025 | [5] 0.041 | [6] -0.021 | gandotinib 0.098 | doramapimod 0.088 | ispinesib -0.04

(list continues)

CDKN2AIP (UniProt Q9NXV6)
inactive: [1] 0.059 | filanesib 0.024 | zotarolimus -0.029 | idasanutlin -0.033 | alisertib -0.091 | [2] -0.007 | gefitinib 0.038 | [3] 0.054 | lapatinib 0.042 | pictilisib -0.025 | [4] -0.053 | crizotinib 0.01 | [5] -0.132 | [6] -0.004 | gandotinib -0.012 | [7] 0.021 | doramapimod -0.019 | ispinesib 0.048

CDCA5 (UniProt Q96FF9)
inactive: [1] -0.196 | filanesib 0.068 | zotarolimus 0.051 | idasanutlin 0.117 | alisertib -0.035 | [2] 0.07 | gefitinib -0.009 | [3] 0.066 | lapatinib -0.045 | pictilisib 0.073 | [4] -0.065 | crizotinib 0.066 | [5] 0.129 | [6] -0.06 | duvelisib -0.069 | gandotinib -0.102 | tozasertib -0.033 | [7] 0.024 | doramapimod -0.01 | ispinesib -0.05

CES2 isoform 4 (UniProt O00748)
inactive: [1] -0.099 | filanesib 0.055 | zotarolimus 0.078 | idasanutlin 0.053 | alisertib 0.023 | [2] -0.044 | gefitinib 0.03 | [3] -0.145 | lapatinib 0.161 | pictilisib 0.103 | [4] 0.162 | crizotinib 0.154 | [5] 0.03 | [6] -0.079 | gandotinib 0.048 | [7] -0.188 | doramapimod 0.144 | ispinesib -0.047

CHEK1 (UniProt O14757)
inactive: [1] 0.005 | filanesib -0.025 | zotarolimus -0.029 | idasanutlin -0.041 | alisertib -0.041 | gefitinib -0.06 | [3] 0.055 | lapatinib -0.007 | pictilisib 0.016 | [4] 0.011 | crizotinib -0.116 | [5] 0.044 | [6] 0.049 | gandotinib -0.122 | [7] 0.008 | doramapimod -0.009 | ispinesib 0.039
active: [2] -0.805

CHAC2 (UniProt Q8WUX2)
inactive: [1] -0.007 | filanesib -0.032 | zotarolimus 0.066 | idasanutlin -0.019 | alisertib 0.026 | [2] -0.061 | gefitinib -0.03 | [3] 0.06 | lapatinib 0.029 | pictilisib 0.077 | [4] 0.026 | crizotinib 0.048 | [5] 0.021 | [6] -0.071 | gandotinib -0.014 | [7] 0.008 | doramapimod -0.021 | ispinesib 0.071

CHD4 isoform 2 (UniProt Q14839)
inactive: [1] 0.04 | filanesib 0.079 | zotarolimus 0.019 | idasanutlin 0.045 | alisertib 0 | [2] -0.099 | gefitinib 0.055 | [3] -0.097 | lapatinib 0.013 | pictilisib -0.028 | [4] -0.02 | crizotinib -0.08 | [5] 0.098 | [6] 0.057 | gandotinib -0.009 | [7] 0.186 | doramapimod 0.014 | ispinesib -0.05

CDK5RAP2 (UniProt Q96SN8)
inactive: [1] -0.265 | crizotinib 0.053 | [5] 0.024 | tozasertib 0.061 | doramapimod 0.099

CENPE (UniProt Q02224)
inactive: [1] -0.355 | filanesib 0.445 | zotarolimus 0.288 | idasanutlin -0.407 | [2] -0.068 | lapatinib 0.024 | pictilisib 0.048 | [4] 0.231 | crizotinib -0.018 | [6] -0.908 | gandotinib 0.052 | [7] 0.24 | doramapimod 0.108 | ispinesib -0.321

CEP170 isoform 3 (UniProt Q5SW79)
inactive: [1] 0.224 | crizotinib -0.537 | doramapimod 0.202

CFAP97 (UniProt Q9P2B7)
inactive: [1] -0.082 | filanesib 0.231 | zotarolimus 0.043 | idasanutlin -0.044 | [2] -0.045 | lapatinib 0.11 | pictilisib -0.029 | [4] -0.144 | crizotinib -0.045 | [5] -0.155 | [6] 0.069 | duvelisib 0.005 | gandotinib -0.145 | tozasertib 0 | [7] 0.042 | doramapimod 0.091 | ispinesib -0.044

CEMIP2 (UniProt Q9UHN6)
inactive: [1] -0.018 | zotarolimus 0.008 | idasanutlin 0.021 | alisertib 0.202 | [2] 0.121 | gefitinib 0.072 | [3] 0.135 | lapatinib 0.026 | pictilisib 0.097 | crizotinib 0.075 | [5] 0.023 | [6] 0.03 | gandotinib -0.129 | [7] -0.136 | doramapimod -0.144 | ispinesib -0.148

CEP41 (UniProt Q9BYV8)
inactive: [1] -0.02 | filanesib -0.051 | [4] 0.129 | crizotinib -0.265 | doramapimod 0.136
